Results are given in words; binding and its absence hold for the method and conditions named. In cells and extracts the contact can be indirect. Some binding calls cover weakened binding; strength is not graded here. Values belong to the binder of their own block, whether it stands above or below them.
Experiments:
[1] = biological target: Cyclin-dependent kinase 6 (CDK6), wild type (mouse (endogenous in eWAT and ADSC)) (UniProt Q64261); assay: co-IP; ADSCs of WT and K43M mice (Supplementary Fig. 10c–g); told as similar to the IP-Westerns of eWAT; legend and details not shown
[2] = biological target: Cyclin-dependent kinase 6 (CDK6), wild type (mouse (endogenous in eWAT and ADSC)) (UniProt Q64261); assay: co-IP; IP-Western from eWAT extracts of WT, K43M and KR (K43M;Runx1-/-) mice; AMPKα, CDK6, CHREBP or p-AMPKα immunoprecipitated and blotted with the indicated antibodies; input 50 μg extract
[3] = biological target: CDK6 K43M, catalytically inactive kinase (knock-in allele) (mouse (endogenous in eWAT and ADSC)) (UniProt Q64261); assay: co-IP; ADSCs of WT and K43M mice (Supplementary Fig. 10c–g); told as similar to the IP-Westerns of eWAT; legend and details not shown

The chains behind the UniProt entries cited, without tags or fusion partners. Where a name states a change or a piece, a line headed by the entry shows the natural chain unless it says otherwise.
UniProt Q64261: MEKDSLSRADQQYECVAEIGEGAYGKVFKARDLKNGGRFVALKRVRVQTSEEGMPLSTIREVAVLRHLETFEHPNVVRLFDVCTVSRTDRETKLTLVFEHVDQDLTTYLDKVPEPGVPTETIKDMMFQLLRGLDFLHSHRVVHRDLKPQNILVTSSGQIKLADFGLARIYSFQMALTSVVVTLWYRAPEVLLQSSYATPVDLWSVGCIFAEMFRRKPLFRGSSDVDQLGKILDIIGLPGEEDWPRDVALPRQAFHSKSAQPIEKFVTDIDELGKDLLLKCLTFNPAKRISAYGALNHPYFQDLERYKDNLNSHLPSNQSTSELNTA

binding [1]: binds | binding [2]: binds
B1: Carbohydrate-responsive element-binding protein, β isoform (CHREBPβ) (protein, UniProt Q99MZ3-6 1-687)
chain: MREYHKWRIYYKKRLRKSSREGDFLAPKQVEGGWPPPERWCEQLFSSVVPVLLGGSEEEPGGRQLLDLDCFLSDISDTLFTMTQPSPSSLQLPPEDAYVGNADMIQPDLTPLQPSLDDFMEISDFFTNYRPPQTPTSSNYIESPSFGPMADSLFSSGILAPEMPSPASSSSSSGMTPHSGNTRLQARNSCSGPLDPNPFLSSEFLLPEDPKTKIPPAPGPTPLLPFPTPVKVHGLEPCTPSPFPTMAPPPSLLPEESLLSARFPFTSAPPAPGVSTLPAPTTFVPTPQPGPGPVPFSVDHLPHGYLEPVFGPHFTVPQGMQPRCKPSSPSPGGQKASPPTLASATASPTATATARDNNPCLTQLLRAAKPEQALEPPTMPGTLLRPPESPQDTVSEIPRARAFFPPIPAPTPPRPPPGPATLAPPRSLVVPKAERLSPPASSGSERRLSGDLNSIQPSGALSVHLSPPQTVLSRGRVDNNKMENRRITHISAEQKRRFNIKLGFDTLHGLVSTLSAQPSLKVSKATTLQKTAEYILMLQQERAAMQEEAQQLRDEIEELNAAINLCQQQLPATGVPITHQRFDQMRDMFDDYVRTRTLHNWKFWVFSILIRPLFESFNGMVSTASLHSLRQTSLAWLEQYCSLPALRPTVLNSLRQLSTSTSILTDPSLVPEQATRAVTEGTLGRPL

binding [1]: binds | binding [3]: binds
B2: Phosphorylated CHREBPβ (p-CHREBPβ) (protein, UniProt Q99MZ3-6 1-687)
chain: B1 chain
modifications: phosphorylated (p-CHREBPβ); residues not stated

binding [2]: no binding
B3: Carbohydrate-responsive element-binding protein, α isoform (CHREBPα) (protein, UniProt Q99MZ3-1 1-864)
chain: MARALADLSVNLQVPRVVPSPDSDSDTDLEDPSPRRSAGGLHRSQVIHSGHFMVSSPHSDSLTRRRDQEGPVGLADFGPRSIDPTLTHLFECLSLAYSGKLVSPKWKNFKGLKLLCRDKIRLNNAIWRAWYIQYVQRRKSPVCGFVTPLQGSEADEHRKPEAVILEGNYWKRRIEVVMREYHKWRIYYKKRLRKSSREGDFLAPKQVEGGWPPPERWCEQLFSSVVPVLLGGSEEEPGGRQLLDLDCFLSDISDTLFTMTQPSPSSLQLPPEDAYVGNADMIQPDLTPLQPSLDDFMEISDFFTNYRPPQTPTSSNYIESPSFGPMADSLFSSGILAPEMPSPASSSSSSGMTPHSGNTRLQARNSCSGPLDPNPFLSSEFLLPEDPKTKIPPAPGPTPLLPFPTPVKVHGLEPCTPSPFPTMAPPPSLLPEESLLSARFPFTSAPPAPGVSTLPAPTTFVPTPQPGPGPVPFSVDHLPHGYLEPVFGPHFTVPQGMQPRCKPSSPSPGGQKASPPTLASATASPTATATARDNNPCLTQLLRAAKPEQALEPPTMPGTLLRPPESPQDTVSEIPRARAFFPPIPAPTPPRPPPGPATLAPPRSLVVPKAERLSPPASSGSERRLSGDLNSIQPSGALSVHLSPPQTVLSRGRVDNNKMENRRITHISAEQKRRFNIKLGFDTLHGLVSTLSAQPSLKVSKATTLQKTAEYILMLQQERAAMQEEAQQLRDEIEELNAAINLCQQQLPATGVPITHQRFDQMRDMFDDYVRTRTLHNWKFWVFSILIRPLFESFNGMVSTASLHSLRQTSLAWLEQYCSLPALRPTVLNSLRQLSTSTSILTDPSLVPEQATRAVTEGTLGRPL

— PMC10844593
